Consider 1 molecule from publication PMC3472068, “Roles of the different components of magnesium chelatase in abscisic acid signal transduction” (Plant Molecular Biology, 2012).

By UniProt entry, the sequences of proteins in these tests, tags left out. Residues count along the entry.
UniProt Q9SJE1, residues 50-760: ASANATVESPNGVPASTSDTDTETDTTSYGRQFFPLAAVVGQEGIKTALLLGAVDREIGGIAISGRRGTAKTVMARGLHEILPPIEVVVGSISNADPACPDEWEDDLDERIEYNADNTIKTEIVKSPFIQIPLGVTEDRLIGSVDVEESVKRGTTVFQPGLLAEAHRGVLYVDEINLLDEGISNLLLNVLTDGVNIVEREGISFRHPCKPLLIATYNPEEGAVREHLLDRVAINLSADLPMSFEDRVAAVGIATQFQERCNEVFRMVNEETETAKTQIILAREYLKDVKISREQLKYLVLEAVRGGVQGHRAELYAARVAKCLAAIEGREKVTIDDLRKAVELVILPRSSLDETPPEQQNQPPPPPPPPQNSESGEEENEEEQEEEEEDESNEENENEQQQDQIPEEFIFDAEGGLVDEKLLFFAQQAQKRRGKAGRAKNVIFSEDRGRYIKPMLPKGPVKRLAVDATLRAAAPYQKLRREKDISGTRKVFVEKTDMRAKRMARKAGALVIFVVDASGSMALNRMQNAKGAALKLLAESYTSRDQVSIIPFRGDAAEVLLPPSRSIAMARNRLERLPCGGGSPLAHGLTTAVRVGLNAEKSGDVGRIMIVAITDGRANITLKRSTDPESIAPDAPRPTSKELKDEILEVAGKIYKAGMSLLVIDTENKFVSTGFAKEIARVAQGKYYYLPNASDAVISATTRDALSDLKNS

These are yes or no findings as the source states them, for the method shown. Binding seen in cells or lysates may run through a third protein. Some binding calls cover weakened binding; strength is not graded here. Sequences can lack the tags named with a protein.

Experiment [1] deals with CHLD-C-terminal half of Luc (CLuc) (Arabidopsis thaliana) (UniProt Q9SJE1). Kind of experiment: split reporter; firefly luciferase complementation imaging (LCI) in N. benthamiana leaves infiltrated with Agrobacterium carrying NLuc and CLuc construct pairs; CCD imaging.
Experiment [2] deals with T1, CHLI1-C-terminal half of Luc (CLuc) (Arabidopsis thaliana) (UniProt P16127).
T1 sequence: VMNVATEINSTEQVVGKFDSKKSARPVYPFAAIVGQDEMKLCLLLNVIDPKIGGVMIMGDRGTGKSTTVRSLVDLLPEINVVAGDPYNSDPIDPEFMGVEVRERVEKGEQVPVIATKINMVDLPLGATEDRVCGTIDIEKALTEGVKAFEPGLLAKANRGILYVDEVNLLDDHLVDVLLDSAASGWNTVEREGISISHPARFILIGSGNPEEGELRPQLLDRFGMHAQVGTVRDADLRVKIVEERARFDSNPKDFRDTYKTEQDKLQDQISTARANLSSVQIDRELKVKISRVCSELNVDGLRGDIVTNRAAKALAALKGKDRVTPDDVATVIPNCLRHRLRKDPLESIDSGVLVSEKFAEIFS
The description is as above.

B1: ABAR-N-terminal half of Luc (ABAR-NLuc) (protein, UniProt Q9FNB0 50-1381)
chain: AVSGNGLFTQTNPEVRRIVPIKRDNVPTVKIVYVVLEAQYQSSLSEAVQSLNKTSRFASYEVVGYLVEELRDKNTYNNFCEDLKDANIFIGSLIFVEELAIKVKDAVEKERDRMDAVLVFPSMPEVMRLNKLGSFSMSQLGQSKSPFFQLFKRKKQGSAGFADSMLKLVRTLPKVLKYLPSDKAQDARLYILSLQFWLGGSPDNLQNFVKMISGSYVPALKGVKIEYSDPVLFLDTGIWHPLAPTMYDDVKEYWNWYDTRRDTNDSLKRKDATVVGLVLQRSHIVTGDDSHYVAVIMELEARGAKVVPIFAGGLDFSGPVEKYFVDPVSKQPIVNSAVSLTGFALVGGPARQDHPRAIEALKKLDVPYLVAVPLVFQTTEEWLNSTLGLHPIQVALQVALPELDGAMEPIVFAGRDPRTGKSHALHKRVEQLCIRAIRWGELKRKTKAEKKLAITVFSFPPDKGNVGTAAYLNVFASIFSVLRDLKRDGYNVEGLPENAETLIEEIIHDKEAQFSSPNLNVAYKMGVREYQDLTPYANALEENWGKPPGNLNSDGENLLVYGKAYGNVFIGVQPTFGYEGDPMRLLFSKSASPHHGFAAYYSYVEKIFKADAVLHFGTHGSLEFMPGKQVGMSDACFPDSLIGNIPNVYYYAANNPSEATIAKRRSYANTISYLTPPAENAGLYKGLKQLSELISSYQSLKDTGRGPQIVSSIISTAKQCNLDKDVDLPDEGLELSPKDRDSVVGKVYSKIMEIESRLLPCGLHVIGEPPSAMEAVATLVNIAALDRPEDEISALPSILAECVGREIEDVYRGSDKGILSDVELLKEITDASRGAVSAFVEKTTNSKGQVVDVSDKLTSLLGFGINEPWVEYLSNTKFYRANRDKLRTVFGFLGECLKLVVMDNELGSLMQALEGKYVEPGPGGDPIRNPKVLPTGKNIHALDPQAIPTTAAMASAKIVVERLVERQKLENEGKYPETIALVLWGTDNIKTYGESLGQVLWMIGVRPIADTFGRVNRVEPVSLEELGRPRIDVVVNCSGVFRDLFINQMNLLDRAIKMVAELDEPVEQNFVRKHALEQAEALGIDIREAATRVFSNASGSYSANISLAVENSSWNDEKQLQDMYLSRKSFAFDSDAPGAGMAEKKQVFEMALSTAEVTFQNLDSSEISLTDVSHYFDSDPTNLVQSLRKDKKKPSSYIADTTTANAQVRTLSETVRLDARTKLLNPKWYEGMMSSGYEGVREIEKRLSNTVGWSATSGQVDNWVYEEANSTFIQDEEMLNRLMNTNPNSFRKMLQTFLEANGRGYWDTSAENIEKLKELYSQVEDKIEGIDR
For B1, the binding result in experiment [1] and in experiment [2] was “binds” throughout.
